Data reported in PubChem BioAssay AID330 (DTP/NCI, 2004).
The list shows only some results of the screen, not a fair sample: it gathers tests that were run many times, whatever their T/C, doses with no T/C, and many T/C values between a quarter and a half above the control. Other doses and runs of a compound stand elsewhere. T/C is the treated group as % of the vehicle group. Some doses have a count of surviving animals in place of a T/C: the source files T/C as zero there, which appears to mark a toxic dose or a test without result, not a measured value. Some survivor counts are full or nearly so, which does not show that the dose was tolerated: the source hardly ever lists a survival T/C far under the control, and the zero likely stands for such cases as well. Counts of survivors are from the toxicity check (mostly the fifth day) where no day follows; animals may have died later. Schedules are NCI's codes, taken here to give the interval after Q, in days (D) or hours (H), and the number of doses after X. For survival time, the PubChem record calls one and a half times the control and up active, and a quarter to a half above the control has no call in these data; cut-offs in other NCI protocols can differ. Brackets with × stand for listed records that agree. Some entries were tested several times; the results are listed from low to high.

Tested on: P388 leukemia ip, CD2F1 mice, survival T/C
Test: NCI In Vivo Anticancer Drug Screen. Data for tumor model P388 Leukemia (intraperitoneal) in CD2F1 (CDF1) mice
Conditions: T/C endpoint: median survival time, higher T/C = longer survival
[1] = dose: 12.5 mg/kg/injection, schedule: Q01DX005 (ip), vehicle: Klucel (hydroxypropylcellulose) (HPC)
[2] = dose: 25.0 mg/kg/injection, schedule: Q01DX005 (ip), vehicle: Klucel (hydroxypropylcellulose) (HPC)
[3] = dose: 100.0 mg/kg/injection, schedule: Q01DX005 (ip), vehicle: Klucel (hydroxypropylcellulose) (HPC)
[4] = dose: 100.0 mg/kg/injection, schedule: Q01DX005 (ip), vehicle: saline with Tween-80
[5] = dose: 400.0 mg/kg/injection, schedule: Q04DX002 (ip), vehicle: saline with Tween-80
[6] = dose: 200.0 mg/kg/injection, schedule: Q01DX005 (ip), vehicle: Klucel (hydroxypropylcellulose) (HPC)
[7] = dose: 1.5 mg/kg/injection, schedule: Q01DX009 (ip), vehicle: saline with Tween-80
[8] = dose: 3.0 mg/kg/injection, schedule: Q01DX009 (ip), vehicle: saline with Tween-80

## Cc1ccc(C)c2c1C(=O)c1c(C)ccc(C)c1C2=O
dose: 6.25 mg/kg/injection, schedule: Q01DX005 (ip), vehicle: Klucel (hydroxypropylcellulose) (HPC)
  survivor count: 5 of 5
[1]
  survivor count: 5 of 5
[2]
  survivor count: 5 of 5
[3]
  survivor count: 5 of 5

## O=C1C(N2CC2)=C(N2CC2)C(=O)c2ncncc21
dose: 10.0 mg/kg/injection, schedule: Q01DX005 (ip), vehicle: saline
  T/C: 125 % of control

## O=C(OC1CCc2ccccc2C1)c1ccc(N=Nc2ccccc2)cc1 (configuration not stated)
dose: 60.0 mg/kg/injection, schedule: Q01DX005 (ip), vehicle: saline with Tween-80
  survivor count: 6 of 6
dose: 240.0 mg/kg/injection, schedule: Q01DX005 (ip), vehicle: saline with Tween-80
  survivor count: 6 of 6

## CC1=CC(=O)[C@@H](O)[C@]2(C)[C@H]3[C@@H](O)[C@H](O)[C@@]4(C)OC[C@@]35[C@@H](C[C@@H]12)OC(=O)C[C@]54O
dose: 1.0 mg/kg/injection, schedule: Q01DX009 (ip), vehicle: saline
  T/C: 126 % of control
dose: 2.0 mg/kg/injection, schedule: Q01DX009 (ip), vehicle: saline
  T/C: 139 and 141 % of control
dose: 4.0 mg/kg/injection, schedule: Q01DX009 (ip), vehicle: saline
  T/C: 137 and 140 % of control
dose: 16.0 mg/kg/injection, schedule: Q01DX009 (ip), vehicle: saline
  survivor count: 2 of 6

## CC(=O)/C(Cl)=N\O
dose: 50.0 mg/kg/injection, schedule: Q01DX005 (ip), vehicle: saline with Tween-80
  survivor count: 0 of 5
[4]
  survivor count: 0 of 5
dose: 200.0 mg/kg/injection, schedule: Q01DX005 (ip), vehicle: saline with Tween-80
  survivor count: 0 of 5

## CN(Cc1cnc2nc(N)nc(N)c2n1)c1c(Cl)cc(C(=O)NC(CCC(=O)O)C(=O)O)cc1Br (configuration not stated)
dose: 264.0 mg/kg/injection, schedule: Q04DX003 (ip), vehicle: saline with Tween-80
  T/C: 141 % of control

## CS/C(=N\N=C(/C)c1ccccn1)SS/C(=N/N=C(\C)c1ccccn1)SC
dose: 200.0 mg/kg/injection, schedule: Q01DX005 (ip), vehicle: saline + Tween-80 + alcohol
  survivor count: 6 of 6

## COc1ccc2c(n1)c(=NCCCCCCN=c1c3ccc(Cl)cc3n(O)c3ccc(OC)nc13)c1ccc(Cl)cc1n2O
dose: 400.0 mg/kg/injection, schedule: Q04DX003 (ip), vehicle: Klucel (hydroxypropylcellulose) (HPC)
  survivor count: 2 of 6

## O=NNc1c2c(nc3ccccc13)CCCC2
dose: 200.0 mg/kg/injection, schedule: Q01DX009 (ip), vehicle: water
  survivor count: 0 of 6

## CCCC1CCC(=C2C(=O)CCC2=O)O1 (configuration not stated)
[5]
  survivor count: 0 of 6

## CCOC(=O)C1=S=C(SC)N(C)C1=O
dose: 200.0 mg/kg/injection, schedule: Q01DX009 (ip), vehicle: saline with Tween-80
  survivor count: 3 of 6
dose: 400.0 mg/kg/injection, schedule: Q01DX009 (ip), vehicle: saline with Tween-80
  survivor count: 0 of 6

## NC(=O)c1c(N)ncnc1N
dose: 100.0 mg/kg/injection, schedule: Q04DX002 (ip), vehicle: saline with Tween-80
  survivor count: 1 of 6
dose: 200.0 mg/kg/injection, schedule: Q04DX002 (ip), vehicle: saline with Tween-80
  survivor count: 0 of 6
[5]
  survivor count: 0 of 6

## CNC(=S)N/N=C/Cn1cc([N+](=O)[O-])c(=O)[nH]c1=O
[6]
  survivor count: 2 of 6

## CCCCc1ccc(-c2nn[nH]n2)nc1
[5]
  survivor count: 0 of 6

## N#CC(CC[N+](=O)[O-])(c1ccccc1)C(c1ccccc1)[N+](=O)[O-] (configuration not stated)
dose: 50.0 mg/kg/injection, schedule: Q01DX001 (ip), vehicle: saline with Tween-80
  survivor count: 4 of 6

## CCCCCCC(=O)CC(SCCN)c1ccccc1Cl (configuration not stated)
dose: 60.0 mg/kg/injection, schedule: Q01DX005 (ip), vehicle: saline
  survivor count: 1 of 6
dose: 120.0 mg/kg/injection, schedule: Q01DX005 (ip), vehicle: saline
  survivor count: 0 of 6
dose: 240.0 mg/kg/injection, schedule: Q01DX005 (ip), vehicle: saline
  survivor count: 0 of 6

## c1nc(SSc2ncnc3nc[nH]c23)c2[nH]cnc2n1
dose: 75.0 mg/kg/injection, schedule: Q01DX009 (ip), vehicle: saline with Tween-80
  survivor count: 5 of 6
dose: 100.0 mg/kg/injection, schedule: Q01DX009 (ip), vehicle: saline with Tween-80
  survivor count: 6 of 6
dose: 115.0 mg/kg/injection, schedule: Q01DX009 (ip), vehicle: saline with Tween-80
  survivor count: 3 of 6
dose: 170.0 mg/kg/injection, schedule: Q01DX009 (ip), vehicle: saline with Tween-80
  survivor count: 2 of 6

## FC(F)(F)C1(C(F)(F)F)N=CC=CN1
dose: 200.0 mg/kg/injection, schedule: Q01DX009 (ip), vehicle: distilled water + alcohol
  survivor count: 0 of 6

## CCn1c(=O)c2[nH]c(Cl)nc2n(CCCl)c1=O
dose: 64.0 mg/kg/injection, schedule: Q01DX009 (ip), vehicle: Klucel (hydroxypropylcellulose) (HPC)
  T/C: 125 % of control
dose: 256.0 mg/kg/injection, schedule: Q01DX009 (ip), vehicle: Klucel (hydroxypropylcellulose) (HPC)
  survivor count: 0 of 6

## O=C(NC(O)C(Cl)(Cl)Cl)c1ccccc1 (configuration not stated)
[4]
  survivor count: 6 of 6

## CCCCN(CCCC)P(=O)(N1CC1)N1CC1
dose: 12.5 mg/kg/injection, schedule: Q01DX009 (ip), vehicle: saline
  T/C: 145 % of control
dose: 37.5 mg/kg/injection, schedule: Q01DX009 (ip), vehicle: saline
  survivor count: 6 of 6
dose: 200.0 mg/kg/injection, schedule: Q04DX003 (ip), vehicle: saline
  survivor count: 2 of 6
dose: 400.0 mg/kg/injection, schedule: Q04DX003 (ip), vehicle: saline
  survivor count: 0 of 6

## CCNC(=NC)c1ccc(NC(=O)c2ccc(C(=O)Nc3ccc(C(=NC)NCC)cc3)cc2)cc1
[7]
  T/C: 127 % of control (2×)
  survivor count: 6 of 6
[8]
  T/C: 136 % of control
  survivor count: 6 of 6
dose: 6.0 mg/kg/injection, schedule: Q01DX009 (ip), vehicle: saline with Tween-80
  survivor count: 6 of 6
dose: 25.0 mg/kg/injection, schedule: Q04DX003 (ip), vehicle: saline with Tween-80
  survivor count: 1 of 6
dose: 50.0 mg/kg/injection, schedule: Q04DX003 (ip), vehicle: saline with Tween-80
  survivor count: 0 of 6
dose: 100.0 mg/kg/injection, schedule: Q04DX003 (ip), vehicle: saline with Tween-80
  survivor count: 0 of 6

## CC1=NN(c2ccccc2)C(=O)C1C1c2ccccc2S(=O)(=O)c2ccccc21 (configuration not stated)
dose: 240.0 mg/kg/injection, schedule: Q01DX005 (ip), vehicle: Klucel (hydroxypropylcellulose) (HPC)
  survivor count: 6 of 6

## Cc1c(-c2ccc(C(=N)N)cc2)oc(-c2ccc(C(=N)N)cc2)c1C
dose: 12.5 mg/kg/injection, schedule: Q01DX009 (ip), vehicle: saline with Tween-80
  T/C: 136 % of control

## CNC(=O)OCc1ccc(NCCN(C)C)c2c(=O)c3cc(OC(=O)NC)ccc3oc12
[1]
  T/C: 127 % of control
[2]
  T/C: 132 % of control
  survivor count: 2 of 6
dose: 50.0 mg/kg/injection, schedule: Q01DX005 (ip), vehicle: Klucel (hydroxypropylcellulose) (HPC)
  survivor count: 0 of 6
[3]
  survivor count: 0 of 6
[6]
  survivor count: 0 of 6

## CCO/C=C1/N=C(c2cccc(Cl)c2)OC1=O
dose: 100.0 mg/kg/injection, schedule: Q04DX002 (ip), vehicle: saline + Tween-80 + alcohol
  survivor count: 6 of 6
dose: 200.0 mg/kg/injection, schedule: Q04DX002 (ip), vehicle: saline + Tween-80 + alcohol
  survivor count: 6 of 6

## C[Si](C)(C)OSc1ccccc1[N+](=O)[O-]
dose: 25.0 mg/kg/injection, schedule: Q01DX009 (ip), vehicle: Klucel (hydroxypropylcellulose) (HPC)
  T/C: 132 % of control
dose: 50.0 mg/kg/injection, schedule: Q01DX009 (ip), vehicle: Klucel (hydroxypropylcellulose) (HPC)
  T/C: 130 % of control
